From PubChem BioAssay AID2685 (National Center for Advancing Translational Sciences (NCATS), 2010)
Some of the results follow. Shown are side measurements of this screen, not its main read-out; they come without a call. The list favours compounds with an active or inconclusive main result. Potencies come from curve fits of mixed quality, noted in brackets.

Test: qHTS Assay for Lipid Storage Modulators in Drosophila S3 Cells;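 on cell number change: cells counted by Cell Tracker Red CMTPX staining in the red channel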
Details: BODIPY lipid droplet fluorescence, 18-24 h; for cell number change: measured here: cell count max response, cells fed with added oleic acid
Outline: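 Laser-scanning cytometry quantifies lipid droplet accumulation (500–530 nm total intensity; droplet/cell object ratio) in oleic acid-fed (400 uM added) Drosophila S3 cells treated with a concentration series. 20 uM Triacsin C defined 100% inhibition.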

[1] = measured here: lipid fluorescence (Fed channel) AC50, cells fed with added oleic acid
[2] = measured here: cell number channel AC50, cells fed with added oleic acid

CCN(C(=O)c1cc2c(=O)[nH]c3ccc(C)cc3c2s1)c1ccc(F)cc1
cell number change: -5.27% | AC50 [1]: 29.1 µM [falling, single point]

Cc1ccc2c(c1)C(CCN)C(=O)N2Cc1ccccc1 (stereo not drawn)
cell number change: 48.8% | AC50 [2]: 25.9 µM [rising, single point] | AC50 [1]: 0.366 µM [falling, full curve, poor fit]

O=C1CC(c2ccc(Cl)cc2)CC(=O)C1CS(=O)(=O)c1ccccc1 (stereo not drawn)
cell number change: 30.7% | AC50 [2]: 6.51 µM [rising, full curve, poor fit] | AC50 [1]: 25.9 µM [rising, single point]

C=CCSc1nc2ccsc2c(=O)n1-c1cccnc1
cell number change: 41% | AC50 [2]: 32.6 µM [rising, single point]

O=C(N/N=C/c1cccc(C(F)(F)F)c1)c1ccc(O)cc1
AC50 [1]: 29.1 µM [rising, single point]

CCc1ccc(Nc2nc(N3CCOCC3)nc(N3CCOCC3)n2)cc1
cell number change: -5.6%

Cc1cccc(N(Cc2ccc(Cl)cc2)S(C)(=O)=O)c1
cell number change: -53.2% | AC50 [2]: 0.00411 µM [falling, full curve, poor fit]

O=[N+]([O-])c1cc(S(=O)(=O)C(F)(F)F)ccc1Sc1nc2ccccc2[nH]1
AC50 [1]: 29.1 µM [falling, single point]

COc1cc(NC(=O)COC(=O)CC(C)(C)C)c(C)cc1[N+](=O)[O-]
cell number change: -6.41% | AC50 [2]: 0.13 µM [rising, full curve] | AC50 [1]: 0.206 µM [rising, full curve]

Cc1nn(Cc2ccccc2)c(C)c1NC(=O)c1cc2nc(-c3ccco3)cc(C(F)(F)F)n2n1
cell number change: -32.6% | AC50 [1]: 5.17 µM [rising, single point]

CCCCCOc1ccc(C2C(C(=O)c3ccc(C)o3)=C(O)C(=O)N2c2cc(C)on2)cc1 (stereo not drawn)
cell number change: 11.1%

N#Cc1c(SCC(=O)O)nc(-c2ccccc2)c2c1CCCC2
cell number change: -33.2% | AC50 [2]: 6.51 µM [falling, full curve, poor fit]

COc1ccc(CNC(=O)c2sc(=S)n(-c3ccc(OC)cc3)c2N)cc1
AC50 [2]: 0.82 µM [rising, partial curve] | AC50 [1]: 0.82 µM [rising, partial curve]

Cc1ccc(NS(=O)(=O)c2ccc(-c3cnc(C4CC4)o3)cc2)cc1
cell number change: -57.6% | AC50 [2]: 29.1 µM [falling, single point] | AC50 [1]: 29.1 µM [falling, single point]

O=C(O)CCNc1cc(N2CCN(C(=O)c3ccco3)CC2)c2noc3c2c1C(=O)c1ccccc1-3
cell number change: -37.2% | AC50 [2]: 32.6 µM [falling, single point]

CC(NC(=O)c1ccc(CS(C)(=O)=O)cc1)c1ccc(-c2ccccc2)cc1 (stereo not drawn)
cell number change: 237% | AC50 [2]: 20.6 µM [rising, partial curve] | AC50 [1]: 5.62 µM [rising, single point]

COC(=O)c1sc(NC(=O)COc2cccnc2[N+](=O)[O-])c(C(=O)OC)c1C
cell number change: -20.5% | AC50 [1]: 29.1 µM [falling, single point]

c1ccc(CSc2nnc(-c3ccco3)n2Cc2ccccc2)cc1
cell number change: -4.7% | AC50 [2]: 0.651 µM [falling, single point]

Cc1cc(C(C)(C)C)cc(C)c1S(=O)(=O)N1CC(=O)Nc2ccccc21
cell number change: -16.8%

Cc1ccc(S(=O)(=O)NCC(=O)OCc2csc(-c3ccccc3)n2)cc1
cell number change: 33.2% | AC50 [2]: 18.4 µM [rising, single point] | AC50 [1]: 0.0731 µM [falling, full curve, poor fit]

Nc1c(N(CCC2=CCCCC2)C(=O)Cc2ccccc2F)c(=O)[nH]c(=O)n1Cc1ccccc1
cell number change: -10.7% | AC50 [1]: 0.411 µM [falling, partial curve, poor fit]

C/C=C/c1ccc(OCC(=O)Nc2cc(S(=O)(=O)N3CCOCC3)ccc2N2CCCC2)c(OC)c1
cell number change: -24.7% | AC50 [1]: 4.11 µM [falling, partial curve, poor fit]

Cn1c(=O)c2c(nc(CN3CCN(c4ccc(F)cc4)CC3)n2Cc2ccccc2F)n(C)c1=O
cell number change: -17% | AC50 [1]: 0.58 µM [rising, single point]

Cc1cccc(CN2CCCC(C(=O)N3CCCCC3)C2)c1 (stereo not drawn)
cell number change: 67.6% | AC50 [2]: 29.1 µM [rising, single point]

CC1(NC(=O)c2cccc(S(=O)(=O)N3CCCc4ccccc43)c2)CCS(=O)(=O)C1 (stereo not drawn)
cell number change: 17.9% | AC50 [1]: 6.51 µM [rising, partial curve]

O=C(CSc1nc2ccc(Cl)cc2[nH]1)NCCc1ccc(Cl)cc1
cell number change: 18.2% | AC50 [1]: 29.1 µM [rising, single point]

CN(C)/C=N/c1c(C(=O)NCc2ccccc2)nnn1Cc1ccccc1
cell number change: 31.6% | AC50 [2]: 23.1 µM [rising, single point] | AC50 [1]: 0.116 µM [falling, full curve, poor fit]

O=C(Nc1ccc(F)cc1)C1CC(=O)n2cnnc2N1 (stereo not drawn)
cell number change: -32.2%

Cc1cc2nnc(SCC(=O)NCc3cccs3)n2c2ccccc12
cell number change: 1.23% | AC50 [1]: 0.13 µM [rising, full curve]

O=C(O)Cc1ccc(C(=O)c2ccc(F)cc2)s1
cell number change: -6.72% | AC50 [1]: 6.51 µM [falling, single point]

C=CCN(C(=O)c1csnn1)C(C(=O)NC1CCCC1)c1c(F)cccc1Cl (stereo not drawn)
AC50 [1]: 7.31 µM [falling, partial curve]

COc1ccc(NC(=O)c2cccc(N3C(=O)NC4CC3(C)Oc3ccccc34)c2)cc1 (stereo not drawn)
cell number change: 121% | AC50 [2]: 20.6 µM [rising, partial curve] | AC50 [1]: 3.26 µM [rising, partial curve]

Cc1cccc(N(CC(=O)NC2CCCC2)C(=O)CCC(=O)Nc2nc(C)cs2)c1
cell number change: 10%

COc1ccc(S(=O)(=O)NC2CCSc3ccccc32)cc1NC(C)=O (stereo not drawn)
cell number change: -2.63%

O=C(COC(=O)/C=C/c1cccs1)Nc1cccc(S(=O)(=O)N2CCCC2)c1
cell number change: -5.85% | AC50 [1]: 6.51 µM [rising, single point]

Cc1cccc(Cc2nnc(CCC(=O)NCc3ccncc3C)o2)c1
cell number change: -18.3% | AC50 [1]: 5.8 µM [falling, partial curve]

CCOc1ccc(/C=N/n2c(SC)nnc2-c2ccccc2)cc1OCC
cell number change: 7.3% | AC50 [1]: 2.06 µM [rising, partial curve, poor fit]
